Publication PMC6298254
No constants are given. Whether binding was seen depends on the method and setting. In cells and extracts the contact can be indirect. A yes stands for co-enrichment or nearness to the bait. Other partners may have been found.

Target: T1, A20 (bait protein in the iMixPro AP-MS approach) (UniProt P21580)
T1 sequence: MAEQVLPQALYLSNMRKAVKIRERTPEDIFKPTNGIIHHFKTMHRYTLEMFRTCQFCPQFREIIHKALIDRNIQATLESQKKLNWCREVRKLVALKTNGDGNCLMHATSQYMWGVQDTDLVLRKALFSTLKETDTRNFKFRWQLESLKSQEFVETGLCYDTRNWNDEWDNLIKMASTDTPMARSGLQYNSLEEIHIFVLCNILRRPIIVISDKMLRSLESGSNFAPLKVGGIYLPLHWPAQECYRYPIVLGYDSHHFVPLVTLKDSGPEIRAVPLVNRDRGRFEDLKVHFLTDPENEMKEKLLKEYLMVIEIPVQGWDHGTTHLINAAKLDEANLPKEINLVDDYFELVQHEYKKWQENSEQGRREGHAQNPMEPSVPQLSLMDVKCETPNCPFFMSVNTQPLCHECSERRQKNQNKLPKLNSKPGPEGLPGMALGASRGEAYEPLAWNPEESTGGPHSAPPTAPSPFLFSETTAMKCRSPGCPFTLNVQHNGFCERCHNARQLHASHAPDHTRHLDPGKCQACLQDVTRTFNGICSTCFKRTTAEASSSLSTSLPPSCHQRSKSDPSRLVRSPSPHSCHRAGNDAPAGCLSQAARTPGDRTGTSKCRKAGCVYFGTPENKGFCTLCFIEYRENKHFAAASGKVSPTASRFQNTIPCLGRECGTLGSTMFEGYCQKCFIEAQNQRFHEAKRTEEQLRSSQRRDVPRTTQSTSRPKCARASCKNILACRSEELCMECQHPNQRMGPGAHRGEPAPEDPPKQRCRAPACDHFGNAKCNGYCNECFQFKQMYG
Experiment: affinity purification with mass spectrometry; iMixPro (intelligent mixing of proteomes) AP-MS with A20 as bait protein; methods not given in this paper (ref. 21)

B1: NDP52 (Nuclear domain 10 protein 52 or CALCOCO2) (protein, UniProt Q13137 1-446)
chain: MEETIKDPPTSAVLLDHCHFSQVIFNSVEKFYIPGGDVTCHYTFTQHFIPRRKDWIGIFRVGWKTTREYYTFMWVTLPIDLNNKSAKQQEVQFKAYYLPKDDEYYQFCYVDEDGVVRGASIPFQFRPENEEDILVVTTQGEVEEIEQHNKELCKENQELKDSCISLQKQNSDMQAELQKKQEELETLQSINKKLELKVKEQKDYWETELLQLKEQNQKMSSENEKMGIRVDQLQAQLSTQEKEMEKLVQGDQDKTEQLEQLKKENDHLFLSLTEQRKDQKKLEQTVEQMKQNETTAMKKQQELMDENFDLSKRLSENEIICNALQRQKERLEGENDLLKRENSRLLSYMGLDFNSLPYQVPTSDEGGARQNPGLAYGNPYSGIQESSSPSPLSIKKCPICKADDICDHTLEQQQMQPLCFNCPICDKIFPATEKQIFEDHVFCHSL
binding: binds
